Measurements: patent publication US10059674B2, “Design, synthesis, and biological evaluation of 1-methyl-1, 4-dihyrdoindeno[1,2-C]pyrazole analogues as potential anticaner agents targeting tubulin colchicine binding site” (ACT PHARMA CO., LTD., priority 2016, dated 2018)

Assay: in vitro
Settings: mouse, liver microsomes, pH 7.47

CN(C)CCOC(c1ccccc1)c1ccccc1 [diphenhydramine, reference compound]
microsomal CLint at 1 µM: 27.9 µL/min/mg
